Data: patent US8790883B2, “Methods of identifying NF-κB inhibitors” (priority 2003, dated 2014)
At least one peptide structure holds a part that was inferred or is arguable (an end, a ring closure or a residue). Peptide text beside a SMILES is read from it. * marks the point of attachment. BODIPYFLEthylmaleimide = Cc1cc(C)n2c1C=C1C=CC(CCC(=O)NCCN3C(=O)CC(*)C3=O)=[N+]1[B-]2(F)F

These compounds were tested on LPS-induced NF-κB activation (assay: NF-κB inhibition assay, first procedure: LPS-induced NF-κB dependent β-galactosidase reporter in 70Z/3-C3 cells). Details: Table 2; read-out: IC 50, inhibition of NF-κB activation pathway.
Type: cell-based, murine
In the case of `CC[C@H](C)[C@H](NC(=O)[C@H](CC(=O)O)NC(=O)[C@H](C)NC(=O)[C@H](CCC(N)=O)NC(=O)[C@H](C)NC(=O)[C@H](CCCCN)NC(=O)[C@H](CC(C)C)NC(=O)[C@H](CCCCN)NC(=O)[C@H](CCCCN)NC(=O)[C@H](Cc1c[nH]c2ccccc12)NC(=O)[C@H](CCCCN)NC(=O)[C@H](CCSC)NC(=O)[C@H](CCCNC(=N)N)NC(=O)[C@H](CCCNC(=N)N)NC(=O)[C@H](CC(N)=O)NC(=O)[C@H](CCC(N)=O)NC(=O)[C@H](Cc1ccccc1)NC(=O)[C@H](Cc1c[nH]c2ccccc12)NC(=O)[C@@H](NC(=O)[C@H](CCCCN)NC(=O)[C@@H](NC(=O)[C@H](CCC(N)=O)NC(=O)[C@H](CCCNC(=N)N)NC(=O)[C@H](CSC1CC(=O)N(CCNC(=O)CCC2=[N+]3C(=Cc4c(C)cc(C)n4[B-]3(F)F)C=C2)C1=O)NC(C)=O)[C@@H](C)CC)[C@@H](C)CC)C(=O)N[C@@H](Cc1ccc(O)cc1)C(=O)N[C@@H](CCCCN)C(=O)N[C@@H](C)C(=O)N[C@@H](CCCNC(=N)N)C(=O)N[C@@H](Cc1ccccc1)C(=O)N[C@@H](CCC(N)=O)C(=O)N[C@@H](C)C(=O)N[C@@H](CCC(=O)O)C(=O)N[C@@H](CCCNC(=N)N)C(=O)N[C@@H](Cc1c[nH]cn1)C(=O)N[C@@H](C)C(=O)N[C@@H](CCCNC(=N)N)C(=O)N[C@@H](CCC(=O)O)C(=O)N[C@@H](CCCCN)C(N)=O` (stereo partly drawn) [BODIPY-Ant-NLM-DR] (Ac-C(BODIPYFLEthylmaleimide)RQIKIWFQNRRMKWKKLKAQADIYKARFQAERHAREK-NH2), the IC50 is reported as 1100 nM.
Work on `CC[C@H](C)[C@H](NC(=O)[C@H](CC(=O)O)NC(=O)[C@H](C)NC(=O)[C@H](CCC(N)=O)NC(=O)[C@H](C)NC(=O)[C@H](CCCCN)NC(=O)[C@H](CC(C)C)NC(=O)[C@H](CCCNC(=N)N)NC(=O)[C@H](CCCNC(=N)N)NC(=O)[C@H](CCCNC(=N)N)NC(=O)[C@H](CCCNC(=N)N)NC(=O)[C@H](CCCNC(=N)N)NC(=O)[C@H](CCCNC(=N)N)NC(=O)[C@H](CCCNC(=N)N)NC(=O)[C@H](CSC1CC(=O)N(CCNC(=O)CCC2=[N+]3C(=Cc4c(C)cc(C)n4[B-]3(F)F)C=C2)C1=O)NC(C)=O)C(=O)N[C@@H](Cc1ccc(O)cc1)C(=O)N[C@@H](CCCCN)C(=O)N[C@@H](C)C(=O)N[C@@H](CCCNC(=N)N)C(=O)N[C@@H](Cc1ccccc1)C(=O)N[C@@H](CCC(N)=O)C(=O)N[C@@H](C)C(=O)N[C@@H](CCC(=O)O)C(=O)N[C@@H](CCCNC(=N)N)C(=O)N[C@@H](Cc1c[nH]cn1)C(=O)N[C@@H](C)C(=O)N[C@@H](CCCNC(=N)N)C(=O)N[C@@H](CCC(=O)O)C(=O)N[C@@H](CCCCN)C(N)=O` (stereo partly drawn) [BODIPY-R7-NLM-DR] (Ac-C(BODIPYFLEthylmaleimide)RRRRRRRLKAQADIYKARFQAERHAREK-NH2) yielded an IC50 of 900 nM.
`CC[C@H](C)[C@H](NC(=O)[C@H](CC(=O)O)NC(=O)[C@H](C)NC(=O)[C@H](CCC(N)=O)NC(=O)[C@H](C)NC(=O)[C@H](CCCCN)NC(=O)[C@H](CC(C)C)NC(=O)[C@H](CCCNC(=N)N)NC(=O)[C@H](CCCNC(=N)N)NC(=O)[C@H](CCCNC(=N)N)NC(=O)[C@H](CCCNC(=N)N)NC(=O)[C@H](CCCNC(=N)N)NC(=O)[C@H](CCCNC(=N)N)NC(=O)[C@H](CCCNC(=N)N)NC(=O)[C@H](CCCNC(=N)N)NC(=O)[C@H](CCCNC(=N)N)NC(=O)[C@H](CSC1CC(=O)N(CCNC(=O)CCC2=[N+]3C(=Cc4c(C)cc(C)n4[B-]3(F)F)C=C2)C1=O)NC(C)=O)C(=O)N[C@@H](Cc1ccc(O)cc1)C(=O)N[C@@H](CCCCN)C(=O)N[C@@H](C)C(=O)N[C@@H](CCCNC(=N)N)C(=O)N[C@@H](Cc1ccccc1)C(=O)N[C@@H](CCC(N)=O)C(=O)N[C@@H](C)C(=O)N[C@@H](CCC(=O)O)C(=O)N[C@@H](CCCNC(=N)N)C(=O)N[C@@H](Cc1c[nH]cn1)C(=O)N[C@@H](C)C(=O)N[C@@H](CCCNC(=N)N)C(=O)N[C@@H](CCC(=O)O)C(=O)N[C@@H](CCCCN)C(N)=O` (stereo partly drawn) [BODIPY-R9-NLM-DR] (Ac-C(BODIPYFLEthylmaleimide)RRRRRRRRRLKAQADIYKARFQAERHAREK-NH2) gave an IC50 of 900 nM.
